Measured values published in article PMC4894982.
No constants are given. Whether binding was seen depends on the method and setting. Some binding calls cover weakened binding; strength is not graded here.

Protein sequences, listed by entry. Tags and fused reporters are not part of them. Residues count along the entry.
UniProt O75581, residues 20-1370: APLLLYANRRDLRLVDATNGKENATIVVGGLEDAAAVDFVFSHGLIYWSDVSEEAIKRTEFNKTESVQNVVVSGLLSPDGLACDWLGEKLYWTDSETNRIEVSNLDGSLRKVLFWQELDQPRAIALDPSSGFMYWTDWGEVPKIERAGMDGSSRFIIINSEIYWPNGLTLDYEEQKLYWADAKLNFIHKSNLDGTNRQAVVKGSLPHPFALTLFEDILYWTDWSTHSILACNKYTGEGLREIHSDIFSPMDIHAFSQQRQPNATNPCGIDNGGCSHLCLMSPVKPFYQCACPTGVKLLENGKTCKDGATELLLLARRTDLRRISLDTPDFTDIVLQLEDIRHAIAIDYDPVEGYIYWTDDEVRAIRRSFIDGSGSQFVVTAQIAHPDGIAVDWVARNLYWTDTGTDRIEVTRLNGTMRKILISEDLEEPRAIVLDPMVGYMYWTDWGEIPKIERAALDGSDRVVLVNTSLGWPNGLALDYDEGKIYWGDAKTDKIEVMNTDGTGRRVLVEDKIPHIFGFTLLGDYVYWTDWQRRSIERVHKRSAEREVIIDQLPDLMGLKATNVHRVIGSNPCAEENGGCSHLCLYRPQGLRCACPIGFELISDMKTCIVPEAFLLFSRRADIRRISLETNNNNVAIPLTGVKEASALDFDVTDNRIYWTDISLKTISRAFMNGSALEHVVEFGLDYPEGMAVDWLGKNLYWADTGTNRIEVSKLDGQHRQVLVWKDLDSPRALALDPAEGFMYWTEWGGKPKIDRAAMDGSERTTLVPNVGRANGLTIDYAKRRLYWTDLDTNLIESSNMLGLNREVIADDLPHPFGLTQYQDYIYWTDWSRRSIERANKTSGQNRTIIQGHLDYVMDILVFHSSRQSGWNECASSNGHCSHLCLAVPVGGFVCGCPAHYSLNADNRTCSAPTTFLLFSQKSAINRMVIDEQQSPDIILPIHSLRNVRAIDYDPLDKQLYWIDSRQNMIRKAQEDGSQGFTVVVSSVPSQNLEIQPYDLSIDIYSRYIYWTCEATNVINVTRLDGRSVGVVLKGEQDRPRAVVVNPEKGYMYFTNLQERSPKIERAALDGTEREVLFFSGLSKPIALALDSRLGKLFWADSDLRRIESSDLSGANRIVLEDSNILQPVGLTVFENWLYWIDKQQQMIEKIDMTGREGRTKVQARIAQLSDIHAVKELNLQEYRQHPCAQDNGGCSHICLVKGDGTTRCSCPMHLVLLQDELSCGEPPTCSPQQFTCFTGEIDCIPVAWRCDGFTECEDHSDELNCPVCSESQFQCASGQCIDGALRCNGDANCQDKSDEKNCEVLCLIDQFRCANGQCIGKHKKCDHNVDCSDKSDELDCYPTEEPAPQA
UniProt Q9BQB4, residues 24-213: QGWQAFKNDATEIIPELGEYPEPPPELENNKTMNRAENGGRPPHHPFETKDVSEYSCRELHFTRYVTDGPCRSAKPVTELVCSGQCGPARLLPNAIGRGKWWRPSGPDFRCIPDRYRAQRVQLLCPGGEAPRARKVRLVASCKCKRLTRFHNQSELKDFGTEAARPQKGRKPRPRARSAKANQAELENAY

B1: biotin-labelled human recombinant DKK1 (ligand, UniProt O94907 32-266)
chain: TLNSVLNSNAIKNLPPPLGGAAGHPGSAVSAAPGILYPGGNKYQTIDNYQPYPCAEDEECGTDEYCASPTRGGDAGVQICLACRKRRKRCMRHAMCCPGNYCKNGICVSSDQNHFRGEIEETITESFGNDHSTLDGYSRRTTLSSKMYHTKGQEGSVCLRSSDCASGLCCARHFWSKICKPVLKEGQVCTKHRRKGSHGLEIFQRCYCGEGLSCRIQKDHHQASNSSRLHTCQRH
modifications: biotin-labelled (site not stated)

Biological target: recombinant huLRP-6/Fc (human) (UniProt O75581)
Test: AlphaScreen or HTRF; competition format: biotin-labelled sclerostin (2 nM) or DKK1 (0.5 nM) on streptavidin donor beads, huLRP-6/Fc (3 nM for sclerostin, 0.3 nM for DKK1) on protein A acceptor beads, serial dilutions of Hetero-DS; 40 mM sodium HEPES pH 7.5, 100 mM NaCl, 1 mM CaCl2, 0.1% BSA, 0.05% Tween20; overnight at 20 °C; both purified

Molecule | binding
biotin-labelled human recombinant sclerostin (from UniProt Q9BQB4 24-213) (ligand) | binds
B1 | binds
